# According to patent US7674451B2, “Cosmetic or pharmaceutical composition comprising peptides, uses and treatment processes” (ISP Investments Inc., priority 2002, dated 2010):
# At least one peptide structure holds a part that was inferred or is arguable (an end, a ring closure or a residue). Where a SMILES comes first, the peptide text is derived from it.
# Experiments:
# Type in all cases: cell-based
# [1] = test system: fibroblasts; assay: Amount of intracellular ATP in fibroblasts (ATP Bioluminescence Assay Kit HS II); details: for percent increase of luminescence (quantity of intracellular ATP): peptide 10^−6 M, compared to untreated cells
# [2] = test system: fibronectin; assay: Fibronectin synthesis by fibroblasts, immunofluorescence; details: human fibroblasts, 10^−6 M, incubated 24 hours, compared to untreated cells
# [3] = test system: collagen I; assay: Collagen I synthesis by fibroblasts, immunofluorescence; details: human fibroblasts, 10^−6 M, incubated 24 hours, compared to untreated cells
# [4] = test system: collagen III; assay: Collagen III synthesis by fibroblasts, immunofluorescence; details: human fibroblasts, 10^−6 M, incubated 24 hours, compared to untreated cells
# [5] = test system: 3T3-L1 adipocytes; assay: Amount of intracellular ATP in adipocytes differentiated from 3T3-L1 (ATP Bioluminescence Assay Kit HS II); details: for percent increase of luminescence (quantity of intracellular ATP): 1% of a 50 ppm solution, compared to untreated cells
# [6] = test system: 3T3-L1 adipocytes; assay: Lipid vacuoles of 3T3-L1 adipocytes, Oil Red coloring, microscopic observation; details: mature adipocytes, 1% solution of a 50 ppm solution, compared to control adipocytes
# [7] = test system: intracellular cAMP in 3T3-L1 adipocytes; assay: Amount of intracellular cAMP in 3T3-L1 adipocytes (EIA kit); details: for intracellular cAMP concentration: 1% solution of a 50 ppm solution; for % of increase of intracellular cAMP concentration: compared to the untreated cells
# [8] = test system: keratin; assay: Keratin expression by HaCat keratinocytes, immunofluorescence (anti-keratin Pan cK); details: HaCat human keratinocytes, 24 hours
# [9] = compared to the untreated cells
structure (smiles),measurement,setting,value
N=C(N)NCCC[C@H](N)C(=O)NCC(=O)N[C@@H](CO)C(=O)O [Arg-Gly-Ser] (H-Arg-Gly-Ser-OH),time of return of ATP to approximately basal state,[1],~2 h
same,time at which the ATP increase reaches its maximum,[1]; after administration,15 min
same,quantity of intracellular ATP,[1]; [9],increases significantly
same,percent increase of luminescence (quantity of intracellular ATP),[1]; t = 3 heures,+0.2%
same,percent increase of luminescence (quantity of intracellular ATP),[1]; t = 5 min,"+60%,"
same,percent increase of luminescence (quantity of intracellular ATP),[1]; t = 15 min,+75%
same,percent increase of luminescence (quantity of intracellular ATP),[1]; t = 30 min,+45%
same,synthesis of fibronectin (intensity of fluorescence),[2],increase
same,collagen I synthesis (intensity of fluorescence),[3],increase
same,collagen III synthesis (intensity of fluorescence),[4],increase
same,time for which the ATP level is maintained,[5],at least 3 hours
same,percent increase of luminescence (quantity of intracellular ATP),[5]; t = 3 heures,+16%
same,percent increase of luminescence (quantity of intracellular ATP),[5]; t = 5 min,+1%
same,percent increase of luminescence (quantity of intracellular ATP),[5]; t = 15 min,+30%
same,time at which the ATP increase reaches its maximum,[5]; after application,15 min
same,quantity of intracellular ATP,[5]; [9],increases significantly
same,intra-adipocyte vesicle content,[6],clearly reduced
same,time at which the cAMP increase begins,[7],~5 min
same,intracellular cAMP concentration,[7]; t = 0,226 nmol/mL
same,intracellular cAMP concentration,[7]; t = 15 min,246 nmol/mL
same,intracellular cAMP concentration,[7]; t = 30 min,304 nmol/mL
same,intracellular cAMP concentration,[7]; t = 2 h.,287 nmol/mL
same,time at which the cAMP increase reached its maximum,[7]; after administration,30 min
same,amount of intracellular cAMP,[7]; compared to untreated cells,significant increase
same,% of increase of intracellular cAMP concentration,[7]; t = 15 min,+8.6%
same,% of increase of intracellular cAMP concentration,[7]; t = 30 min,+33%
same,% of increase of intracellular cAMP concentration,[7]; t = 2 h.,+28%
same,keratin synthesis (fluorescence intensity),[8],increasing
